Source: paper PMC13151129
These are yes or no findings as the source states them, for the method shown. Binding seen in cells or lysates may run through a third protein. Some entries that bind do so weakly or less than the wild type.

Sequences of proteins named here, by UniProt entry; tags and fusion partners are left off. A change or cut given only in a name is not applied to a line headed by its entry. A line that says so, or that is headed by a name, gives the form on record, which may keep a tag or linker. Residues count along the entry.
p75 neurotrophin receptor (p75^NTR), wild type (mouse (endogenous in hippocampus)) (Q9Z0W1, residues 32-427): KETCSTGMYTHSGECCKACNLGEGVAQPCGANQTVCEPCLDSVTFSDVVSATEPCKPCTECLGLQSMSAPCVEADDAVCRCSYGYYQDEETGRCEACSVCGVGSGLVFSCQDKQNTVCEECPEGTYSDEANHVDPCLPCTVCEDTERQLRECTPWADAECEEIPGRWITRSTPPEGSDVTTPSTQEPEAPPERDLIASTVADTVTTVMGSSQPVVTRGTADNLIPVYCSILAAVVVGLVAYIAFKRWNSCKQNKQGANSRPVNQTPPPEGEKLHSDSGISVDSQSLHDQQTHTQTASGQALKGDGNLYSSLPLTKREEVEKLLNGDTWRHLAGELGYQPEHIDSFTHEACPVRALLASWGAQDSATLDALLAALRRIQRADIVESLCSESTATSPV
palmitoylation-deficient mutant of p75^NTR (p75^C281A) (mouse (endogenous in hippocampus)) (Q9Z0W1, form named): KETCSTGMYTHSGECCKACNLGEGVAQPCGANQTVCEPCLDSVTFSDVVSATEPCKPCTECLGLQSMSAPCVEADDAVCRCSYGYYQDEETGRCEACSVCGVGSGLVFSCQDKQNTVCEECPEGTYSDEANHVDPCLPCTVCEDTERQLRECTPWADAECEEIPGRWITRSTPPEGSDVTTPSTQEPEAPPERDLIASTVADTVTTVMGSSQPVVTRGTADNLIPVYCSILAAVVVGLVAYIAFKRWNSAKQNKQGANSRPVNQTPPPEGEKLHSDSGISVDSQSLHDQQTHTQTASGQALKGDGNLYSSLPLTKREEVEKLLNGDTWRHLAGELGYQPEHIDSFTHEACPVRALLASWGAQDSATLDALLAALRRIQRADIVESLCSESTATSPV

B1: caveolin-1 (protein, UniProt P49817 1-178)
chain: MSGGKYVDSEGHLYTVPIREQGNIYKPNNKAMADEVTEKQVYDAHTKEIDLVNRDPKHLNDDVVKIDFEDVIAEPEGTHSFDGIWKASFTTFTVTKYWFYRLLSTIFGIPMALIWGIYFAILSFLHIWAVVPCIKSFLIEIQCISRVYSIYVHTFCDPLFEAIGKIFSNIRISTQKEI

What was measured:
[1] = target: p75^NTR, wild type, HA- or Myc-tagged, transfected (UniProt Q9Z0W1); test: co-IP; HEK293T cells co-transfected with HA-tagged and Myc-tagged p75^NTR (wild type and C281A), 24 h; Co-IP lysis buffer; precipitated with HA antibody overnight at 4 °C, protein A/G magnetic beads; Western blot
[2] = target: p75^NTR C281A palmitoylation-deficient mutant, HA- or Myc-tagged, transfected (UniProt Q9Z0W1); test: as above
[3] = target: palmitoylation-deficient mutant of p75^NTR (p75^C281A) (mouse (endogenous in hippocampus)) (UniProt Q9Z0W1); test: co-IP; postnatal day 7 hippocampal extracts from WT or m/m mice; Co-IP lysis buffer (50 mM Tris-HCl pH 7.2, NaCl, 0.5 mM EDTA, 250 mM sucrose, 60 mM octyl-β-glucoside, 1% Triton X-100); precipitated with antibody to the p75^NTR death domain overnight at 4 °C, protein A/G magnetic beads; Western …
[4] = target: p75 neurotrophin receptor (p75^NTR), wild type (mouse (endogenous in hippocampus)) (UniProt Q9Z0W1); test: as above

Molecule | binding [1] | binding [2] | binding [3] | binding [4]
p75^NTR C281A palmitoylation-deficient mutant, HA- or Myc-tagged, transfected (from UniProt Q9Z0W1 32-427) (receptor) | binds | binds | – | –
p75^NTR, wild type, HA- or Myc-tagged, transfected (from UniProt Q9Z0W1 32-427) (receptor) | binds | – | – | –
B1 | – | – | binds | binds
